Reference: patent US11066655B2, “RNA polymerase, methods of purification and methods of use” (President and Fellows of Harvard College, priority 2013, dated 2021)
Some results were stated once for a whole list of compounds, not compound by compound.

Test system: pUC19-S5P or pUC19-T7P
Assay: Processivity gel assay, rolling-circle synthesis on single-promoter plasmids
Assay type: biochemical
Settings: denaturing conditions, 10 nM RNAP
Method: FIGS. 9A-9H depict the processivity of Syn5 and T7 RNA polymerases. A) Agarose gel showing RNA synthesis by previously purified Syn5 RNA polymerase, newly purified Syn5 RNA polymerase with the improved procedure, and T7 RNA polymerase on a plasmid template containing a single cognate promoter (as shown in the schematic). B) Product as shown in A) by S5N2 RNA polymerase was incubated with 1 U/[…]1 RNase I or DNase I to confirm its RNA nature. C) Effect of increasing KCl concentration on Syn5 RNA polymerase transcription. D) Products by Syn5 and T7 RNAP in a rolling-circle manner were analyzed at denaturing condition. E) Same assay as D) except that the template plasmids were linearized as shown in the schematic. F) & G) Decreasing the concentration of T7 (F) and Syn5 (G) RNA polymerase reduced the abortive products due to clash of RNA polymerases at promoter region. H) RNA polymerase promoter distribution on coliphage T7 and cyanophage Syn5 genomes.
DNA templates for transcription assays were either plasmids or dsDNA fragments made of synthesized oligonucleotides. To test the processivity of Syn5 and T7 RNAP, a single Syn5 or T7 promoter plus 3 guanosine downstream of the promoter (Syn5 5′-ATTGGGCACCCGTAAGGG-3′ (SEQ ID NO:1) or T7 5′-[…]-3′) (SEQ ID NO:2) was inserted between the BamHI and XbaI sites of plasmid pUC19 to form pUC19-S5P or pUC19-T7P. […]

Molecule | length of longest products
T7 RNAP: RNA polymerase encoded by bacteriophage T7, from New England Biolabs [reference compound] | over 9 kilo nt
Syn5 RNAP: single subunit DNA-dependent RNA polymerase from marine cyanophage Syn5, amino acid sequence SEQ ID NO:23 (protein, Amino acid sequence of a cyanophage Syn5 RNAP) MSFDLIARQLQRETEAAELARKRLQDARREANERSYASSNIESRKAIATFLDPIAQRIGERLFTLRRGTGAVDAAEVYKHLKNADHHHLALITMKTALDVLGKDPEPQIQQLTTAIGRNIQLELRLTYYAEENPELYKQASRFFHAGTGTRQKATVIKLKFNREGIEWDQWSRVTCHKVGQWLMLAMADVTGWIERATDRTSGGRKTKTRICYSREFLQHRDTILAAAEQLAFCQWPMLCPPIEWSNDHNGGYLSEQIRRVNPLIRKTGPLGTRKQGDIPLAMLNNLQGQAYKVNPEVLDIANHCYESNVTVGKFIRHAPLPVPPSPGEDCTEDQLTAYKRARREAEDFNAQISQKNWRTTEVMYVARKYADEASFWMPASFDYRGRVYFLNTALNPQGTDFDKALLYFAEEGPVNEWWLSFHVATTYGLDKETMVNRVQWARDNHELIDRIASDPVRHTEWHDADEPWCFLAACLEYKACVIDGTKQTSGLPIGIDATCSGLQHLAAMTRCGRTAALVNVTPTDKPADAYKTVAQASLKHLPKEQHEWITRKVTKRPVMCTPYGVTMSSARGYIRDQLVKDGHKEDLRSPGVLNGIVKAIFNEAIPEVIPGPVQVMAWLKRSAGQIIDRGDSTITWTTPSGFEVVQDLKKSKTYEVKTRIMGGARIKLQVGDGFTDEPDRDHHKSALAPNVVHSNDASLLHLTFAFWDKPFTVIHDCVLGRSCDMDQMGSDIRLHFAEMYKADVMQDWADQVGVELPVDLIKNTLDIDSVNQSLYFFS | over 9 kilo nt
